Reference: the supplement of paper PMC6411743
± gives the standard deviation of the averaged measurements. This is a selection; strong and weak results do not stand in their true shares. Most entries show no effect beyond the scatter of the controls.

Protein sequences, listed by entry. Tags and fused reporters are not part of them. Lines headed by an entry give the natural chain unless they say otherwise; changes in a name come on top.
UniProt P23919: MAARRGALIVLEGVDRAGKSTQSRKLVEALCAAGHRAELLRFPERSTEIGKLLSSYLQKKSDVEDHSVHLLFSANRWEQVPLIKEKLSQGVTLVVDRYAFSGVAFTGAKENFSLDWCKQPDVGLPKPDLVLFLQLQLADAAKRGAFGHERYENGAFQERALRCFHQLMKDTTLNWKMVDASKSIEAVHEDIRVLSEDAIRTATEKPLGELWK
UniProt P27144: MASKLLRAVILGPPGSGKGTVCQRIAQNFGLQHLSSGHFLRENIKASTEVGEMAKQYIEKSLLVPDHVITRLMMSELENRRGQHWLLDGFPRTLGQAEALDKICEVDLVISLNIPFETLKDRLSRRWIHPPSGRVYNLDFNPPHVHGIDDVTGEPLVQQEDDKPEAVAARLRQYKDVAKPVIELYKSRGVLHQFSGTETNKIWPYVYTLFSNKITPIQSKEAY
UniProt P30086: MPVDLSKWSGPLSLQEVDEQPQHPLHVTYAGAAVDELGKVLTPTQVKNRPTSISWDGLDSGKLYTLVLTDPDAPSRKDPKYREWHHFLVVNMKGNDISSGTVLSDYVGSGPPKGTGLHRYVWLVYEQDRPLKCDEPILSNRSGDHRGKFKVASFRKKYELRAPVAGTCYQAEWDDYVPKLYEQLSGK
UniProt P18615, whole entry: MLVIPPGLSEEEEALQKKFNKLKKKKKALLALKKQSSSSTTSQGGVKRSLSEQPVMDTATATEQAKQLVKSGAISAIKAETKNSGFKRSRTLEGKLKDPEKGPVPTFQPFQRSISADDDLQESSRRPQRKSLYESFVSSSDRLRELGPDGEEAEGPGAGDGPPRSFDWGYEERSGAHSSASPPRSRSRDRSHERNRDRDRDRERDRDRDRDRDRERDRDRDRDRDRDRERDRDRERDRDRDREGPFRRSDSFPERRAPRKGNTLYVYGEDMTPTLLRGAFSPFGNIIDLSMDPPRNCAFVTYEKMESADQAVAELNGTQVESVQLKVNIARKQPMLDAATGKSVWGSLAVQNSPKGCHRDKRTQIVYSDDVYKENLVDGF
UniProt P17152: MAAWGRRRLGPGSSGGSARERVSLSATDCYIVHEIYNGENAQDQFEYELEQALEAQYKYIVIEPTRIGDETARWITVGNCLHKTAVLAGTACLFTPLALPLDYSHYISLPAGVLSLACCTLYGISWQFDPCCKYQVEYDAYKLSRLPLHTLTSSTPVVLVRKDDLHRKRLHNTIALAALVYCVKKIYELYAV
UniProt P28702: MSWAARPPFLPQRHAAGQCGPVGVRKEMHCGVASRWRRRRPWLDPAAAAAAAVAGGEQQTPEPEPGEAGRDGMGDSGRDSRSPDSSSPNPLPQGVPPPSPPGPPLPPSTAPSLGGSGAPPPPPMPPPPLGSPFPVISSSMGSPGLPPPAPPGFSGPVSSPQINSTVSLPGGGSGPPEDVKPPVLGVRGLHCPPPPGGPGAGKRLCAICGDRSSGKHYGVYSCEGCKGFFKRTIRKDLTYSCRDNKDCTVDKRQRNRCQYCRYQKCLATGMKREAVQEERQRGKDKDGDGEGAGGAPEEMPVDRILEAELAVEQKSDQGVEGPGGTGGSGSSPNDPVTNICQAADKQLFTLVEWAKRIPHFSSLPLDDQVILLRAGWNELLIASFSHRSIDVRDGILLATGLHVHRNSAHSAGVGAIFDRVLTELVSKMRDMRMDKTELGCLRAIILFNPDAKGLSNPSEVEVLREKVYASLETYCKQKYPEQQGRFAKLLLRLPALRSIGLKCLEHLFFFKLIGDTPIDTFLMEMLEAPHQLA
UniProt P30626: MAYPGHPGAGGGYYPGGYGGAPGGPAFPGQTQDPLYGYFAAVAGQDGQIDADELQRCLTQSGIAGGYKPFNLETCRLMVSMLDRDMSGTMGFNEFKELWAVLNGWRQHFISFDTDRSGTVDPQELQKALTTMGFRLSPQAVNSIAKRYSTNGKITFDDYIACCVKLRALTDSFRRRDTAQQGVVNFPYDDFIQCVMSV
UniProt P31040: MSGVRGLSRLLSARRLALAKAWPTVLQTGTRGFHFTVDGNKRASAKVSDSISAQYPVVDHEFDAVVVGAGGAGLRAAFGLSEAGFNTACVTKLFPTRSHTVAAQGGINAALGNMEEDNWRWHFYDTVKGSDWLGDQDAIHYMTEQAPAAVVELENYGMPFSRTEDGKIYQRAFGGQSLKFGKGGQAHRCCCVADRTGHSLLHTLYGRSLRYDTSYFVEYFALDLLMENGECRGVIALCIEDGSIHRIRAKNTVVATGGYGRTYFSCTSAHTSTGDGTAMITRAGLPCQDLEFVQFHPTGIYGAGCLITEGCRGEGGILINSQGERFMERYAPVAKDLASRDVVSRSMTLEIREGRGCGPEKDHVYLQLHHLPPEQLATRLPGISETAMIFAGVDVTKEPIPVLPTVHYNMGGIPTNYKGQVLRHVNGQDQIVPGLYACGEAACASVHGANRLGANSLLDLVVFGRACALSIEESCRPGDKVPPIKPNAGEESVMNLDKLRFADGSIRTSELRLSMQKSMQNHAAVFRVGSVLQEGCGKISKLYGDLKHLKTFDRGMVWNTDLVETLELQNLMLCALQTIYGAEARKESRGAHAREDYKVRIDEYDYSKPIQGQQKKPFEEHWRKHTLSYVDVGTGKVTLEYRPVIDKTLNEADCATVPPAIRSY
UniProt P32856: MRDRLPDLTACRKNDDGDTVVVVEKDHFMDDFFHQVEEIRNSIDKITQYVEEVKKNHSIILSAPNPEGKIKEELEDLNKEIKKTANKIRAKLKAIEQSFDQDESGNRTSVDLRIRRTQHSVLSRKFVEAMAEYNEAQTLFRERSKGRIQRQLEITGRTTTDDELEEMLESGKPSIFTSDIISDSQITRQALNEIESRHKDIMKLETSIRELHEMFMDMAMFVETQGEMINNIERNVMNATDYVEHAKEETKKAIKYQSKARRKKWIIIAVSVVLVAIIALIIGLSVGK
UniProt P17812: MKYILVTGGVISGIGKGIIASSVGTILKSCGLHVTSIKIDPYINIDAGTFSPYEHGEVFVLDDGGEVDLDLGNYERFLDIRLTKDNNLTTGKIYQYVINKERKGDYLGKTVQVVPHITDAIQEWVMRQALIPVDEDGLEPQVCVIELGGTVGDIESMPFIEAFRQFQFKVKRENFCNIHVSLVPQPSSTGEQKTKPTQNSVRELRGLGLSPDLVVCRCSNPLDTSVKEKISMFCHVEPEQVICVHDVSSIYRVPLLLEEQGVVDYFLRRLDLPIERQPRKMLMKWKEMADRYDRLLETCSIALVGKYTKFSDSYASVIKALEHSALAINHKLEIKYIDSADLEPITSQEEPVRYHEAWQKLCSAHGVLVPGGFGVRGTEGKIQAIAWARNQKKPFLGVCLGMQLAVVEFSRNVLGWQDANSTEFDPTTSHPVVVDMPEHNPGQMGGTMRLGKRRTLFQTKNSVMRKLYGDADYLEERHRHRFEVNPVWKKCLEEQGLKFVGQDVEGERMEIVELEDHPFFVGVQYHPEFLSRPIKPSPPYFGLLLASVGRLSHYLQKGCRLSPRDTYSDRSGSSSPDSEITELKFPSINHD
UniProt P30044: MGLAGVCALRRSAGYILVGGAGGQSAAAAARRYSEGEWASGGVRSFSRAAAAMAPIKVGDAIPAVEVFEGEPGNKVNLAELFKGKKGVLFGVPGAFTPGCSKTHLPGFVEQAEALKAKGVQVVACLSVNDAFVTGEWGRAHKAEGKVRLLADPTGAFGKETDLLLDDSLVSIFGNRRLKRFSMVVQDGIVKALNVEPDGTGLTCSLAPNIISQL
UniProt P30405: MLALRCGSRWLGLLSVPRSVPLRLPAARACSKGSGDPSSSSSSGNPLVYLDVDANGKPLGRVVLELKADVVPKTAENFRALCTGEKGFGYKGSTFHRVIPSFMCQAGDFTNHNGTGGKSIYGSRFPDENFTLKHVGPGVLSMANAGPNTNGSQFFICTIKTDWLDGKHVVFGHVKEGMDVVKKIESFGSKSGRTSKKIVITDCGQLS
UniProt P35610: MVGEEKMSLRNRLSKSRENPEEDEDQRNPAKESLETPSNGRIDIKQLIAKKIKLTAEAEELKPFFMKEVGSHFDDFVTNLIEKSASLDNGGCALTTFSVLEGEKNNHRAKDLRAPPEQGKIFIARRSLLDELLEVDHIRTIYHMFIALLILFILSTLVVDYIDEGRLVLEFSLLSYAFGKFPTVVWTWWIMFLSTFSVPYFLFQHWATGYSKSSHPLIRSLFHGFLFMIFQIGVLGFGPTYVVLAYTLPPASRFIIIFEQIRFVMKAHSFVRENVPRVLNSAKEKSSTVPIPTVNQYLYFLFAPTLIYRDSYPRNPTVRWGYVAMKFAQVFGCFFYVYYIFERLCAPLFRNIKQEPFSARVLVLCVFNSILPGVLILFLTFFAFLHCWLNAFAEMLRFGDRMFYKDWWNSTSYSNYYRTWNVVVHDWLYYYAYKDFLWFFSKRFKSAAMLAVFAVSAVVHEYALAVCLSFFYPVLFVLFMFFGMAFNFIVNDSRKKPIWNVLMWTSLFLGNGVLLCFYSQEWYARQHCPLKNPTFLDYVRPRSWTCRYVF
UniProt P17028: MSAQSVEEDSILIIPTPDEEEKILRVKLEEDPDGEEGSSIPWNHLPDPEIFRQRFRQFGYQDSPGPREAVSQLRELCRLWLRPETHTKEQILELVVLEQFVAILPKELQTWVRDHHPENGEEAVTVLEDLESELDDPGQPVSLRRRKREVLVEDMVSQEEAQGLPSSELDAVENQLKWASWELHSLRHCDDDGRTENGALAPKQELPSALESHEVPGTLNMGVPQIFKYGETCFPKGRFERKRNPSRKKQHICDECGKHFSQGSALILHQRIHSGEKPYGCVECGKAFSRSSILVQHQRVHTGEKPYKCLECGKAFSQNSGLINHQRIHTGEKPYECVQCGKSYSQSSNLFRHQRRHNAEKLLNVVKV
UniProt P23258, whole entry: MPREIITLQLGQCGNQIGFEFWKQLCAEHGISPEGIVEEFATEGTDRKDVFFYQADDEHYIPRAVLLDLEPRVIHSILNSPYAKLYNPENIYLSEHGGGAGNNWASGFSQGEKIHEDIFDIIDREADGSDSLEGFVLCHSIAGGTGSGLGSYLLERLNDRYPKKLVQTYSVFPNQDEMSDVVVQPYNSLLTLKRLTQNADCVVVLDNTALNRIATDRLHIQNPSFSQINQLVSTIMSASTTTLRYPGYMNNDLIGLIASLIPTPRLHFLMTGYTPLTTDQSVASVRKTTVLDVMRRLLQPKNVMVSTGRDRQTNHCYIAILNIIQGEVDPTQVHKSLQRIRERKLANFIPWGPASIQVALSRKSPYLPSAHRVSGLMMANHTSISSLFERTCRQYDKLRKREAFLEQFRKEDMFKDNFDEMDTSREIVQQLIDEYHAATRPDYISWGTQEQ
UniProt P21964: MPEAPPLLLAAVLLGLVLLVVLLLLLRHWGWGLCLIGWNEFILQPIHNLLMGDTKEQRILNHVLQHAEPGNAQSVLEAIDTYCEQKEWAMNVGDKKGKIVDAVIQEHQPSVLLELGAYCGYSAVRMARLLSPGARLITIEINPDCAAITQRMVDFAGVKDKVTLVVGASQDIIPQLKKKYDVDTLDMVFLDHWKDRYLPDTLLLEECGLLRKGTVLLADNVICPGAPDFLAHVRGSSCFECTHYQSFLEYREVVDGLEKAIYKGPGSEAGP
UniProt P24386: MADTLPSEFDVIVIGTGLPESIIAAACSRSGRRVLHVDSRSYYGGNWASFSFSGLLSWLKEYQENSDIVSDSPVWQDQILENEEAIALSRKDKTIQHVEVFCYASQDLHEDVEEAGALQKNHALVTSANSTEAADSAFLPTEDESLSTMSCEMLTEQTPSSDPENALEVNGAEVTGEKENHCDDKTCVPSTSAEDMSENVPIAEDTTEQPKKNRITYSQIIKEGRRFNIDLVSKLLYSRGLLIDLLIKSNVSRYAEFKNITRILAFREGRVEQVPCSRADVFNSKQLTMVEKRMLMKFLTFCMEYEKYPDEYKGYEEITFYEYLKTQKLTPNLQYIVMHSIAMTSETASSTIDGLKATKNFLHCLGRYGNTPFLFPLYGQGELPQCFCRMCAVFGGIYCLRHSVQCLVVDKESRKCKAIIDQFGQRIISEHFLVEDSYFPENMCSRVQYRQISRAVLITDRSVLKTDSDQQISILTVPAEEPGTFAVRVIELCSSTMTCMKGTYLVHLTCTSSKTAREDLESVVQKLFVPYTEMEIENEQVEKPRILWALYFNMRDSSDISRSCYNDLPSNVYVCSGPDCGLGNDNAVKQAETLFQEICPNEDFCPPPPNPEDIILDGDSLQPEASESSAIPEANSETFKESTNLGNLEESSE
UniProt P31321, whole entry: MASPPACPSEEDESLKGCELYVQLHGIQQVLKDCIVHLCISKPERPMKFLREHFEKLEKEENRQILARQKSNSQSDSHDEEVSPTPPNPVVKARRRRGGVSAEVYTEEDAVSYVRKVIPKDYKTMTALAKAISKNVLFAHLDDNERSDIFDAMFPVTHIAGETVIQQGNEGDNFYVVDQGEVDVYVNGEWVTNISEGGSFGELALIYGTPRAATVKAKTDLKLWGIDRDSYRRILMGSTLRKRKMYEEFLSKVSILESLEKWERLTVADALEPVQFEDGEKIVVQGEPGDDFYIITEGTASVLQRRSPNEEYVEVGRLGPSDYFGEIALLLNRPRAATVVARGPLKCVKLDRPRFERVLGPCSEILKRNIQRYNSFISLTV

Compound: Nc1ncnc2c1ncn2[C@@H]1O[C@H](COP(=O)(O)OP(=O)(O)NP(=O)(O)O)[C@@H](O)[C@H]1O [adenylyl imidodiphosphate]
Assay: NP40-soluble protein abundance relative to vehicle (solubility fold change) (ratio); higher = more soluble protein in presence of AMP-PNP
Method in brief: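 Jurkat crude lysate prepared with a Dounce homogeniser was treated at eight concentrations spanning 0.1 to 10 mM, 10 min at room temperature then 3 min at 37 °C. Solubilisation with 0.8% NP40 and benzonase and ultracentrifugation preceded TMT labelling of the supernatant for LC-MS/MS. Fold change against the detergent-processed vehicle was determined per replicate from vsn-normalised intensities, across three independent experiments.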

Work on DTYMK (UniProt P23919) yielded an NP40-soluble protein abundance (concentration: 0.1mM) of 1.013 ± 0.0085 and an NP40-soluble protein abundance (concentration: 0.5mM) of 0.987 ± 0.017.

In the case of AK4 (UniProt P27144), the NP40-soluble protein abundance (concentration: 0.1mM) is reported as 0.995 ± 0.045 and the NP40-soluble protein abundance (concentration: 0.5mM) is reported as 1.03 ± 0.1.

PEBP1 (UniProt P30086) gave an NP40-soluble protein abundance (concentration: 0.1mM) of 0.999 ± 0.022 and an NP40-soluble protein abundance (concentration: 0.5mM) of 1.02 ± 0.026.

UniProt P21675 and related entries gave an NP40-soluble protein abundance (concentration: 0.1mM) of 0.997 ± 0.052 and an NP40-soluble protein abundance (concentration: 0.5mM) of 0.997 ± 0.04.

With UniProt P18615 the NP40-soluble protein abundance (concentration: 0.1mM) was 0.971 ± 0.011 and the NP40-soluble protein abundance (concentration: 0.5mM) was 0.974 ± 0.041.

In the case of TMEM11 (UniProt P17152), the NP40-soluble protein abundance (concentration: 0.1mM) is reported as 1 ± 0.065 and the NP40-soluble protein abundance (concentration: 0.5mM) is reported as 0.997 ± 0.1.

With ITGA2 (UniProt P17301) the NP40-soluble protein abundance (concentration: 0.1mM) was 0.9923 ± 0.003 and the NP40-soluble protein abundance (concentration: 0.5mM) was 1.02 ± 0.015.

Work on UniProt P37275-2|P37275-5|P37275 yielded an NP40-soluble protein abundance (concentration: 0.1mM) of 0.99 ± 0.027 and an NP40-soluble protein abundance (concentration: 0.5mM) of 0.975 ± 0.039.

For UniProt P28702 and related entries, the NP40-soluble protein abundance (concentration: 0.1mM) was 0.995 ± 0.023 and the NP40-soluble protein abundance (concentration: 0.5mM) was 0.988 ± 0.023.

With HMGB2 (UniProt P26583) the NP40-soluble protein abundance (concentration: 0.1mM) was 0.998 ± 0.093 and the NP40-soluble protein abundance (concentration: 0.5mM) was 1.14 ± 0.17.

In the case of UniProt P30626 and related entries, the NP40-soluble protein abundance (concentration: 0.1mM) is reported as 1.03 ± 0.059 and the NP40-soluble protein abundance (concentration: 0.5mM) is reported as 1.06 ± 0.1.

UniProt P22033 gave an NP40-soluble protein abundance (concentration: 0.1mM) of 0.999 ± 0.021 and an NP40-soluble protein abundance (concentration: 0.5mM) of 0.9844 ± 0.0069.

For NAGA (UniProt P17050), the NP40-soluble protein abundance (concentration: 0.1mM) was 0.986 ± 0.028 and the NP40-soluble protein abundance (concentration: 0.5mM) was 0.992 ± 0.013.

DGKA (UniProt P23743) showed an NP40-soluble protein abundance (concentration: 0.1mM) of 1.05 ± 0.025 and an NP40-soluble protein abundance (concentration: 0.5mM) of 1.03 ± 0.1.

UniProt P30048 and related entries was tested, and the NP40-soluble protein abundance (concentration: 0.1mM) was 0.98 ± 0.012 and the NP40-soluble protein abundance (concentration: 0.5mM) was 1.01 ± 0.023.

Target GSTM3 (UniProt P21266) has an NP40-soluble protein abundance (concentration: 0.1mM) of 1.02 ± 0.042 and an NP40-soluble protein abundance (concentration: 0.5mM) of 1.06 ± 0.071.

Target SDHA (UniProt P31040) has an NP40-soluble protein abundance (concentration: 0.1mM) of 1.002 ± 0.0037 and an NP40-soluble protein abundance (concentration: 0.5mM) of 0.969 ± 0.024.

UniProt P32856 and related entries gave an NP40-soluble protein abundance (concentration: 0.1mM) of 1.01 ± 0.03 and an NP40-soluble protein abundance (concentration: 0.5mM) of 1.01 ± 0.02.

Target UniProt P30049 has an NP40-soluble protein abundance (concentration: 0.1mM) of 1.01 ± 0.018 and an NP40-soluble protein abundance (concentration: 0.5mM) of 0.996 ± 0.044.

UniProt P17812 showed an NP40-soluble protein abundance (concentration: 0.1mM) of 0.971 ± 0.017 and an NP40-soluble protein abundance (concentration: 0.5mM) of 0.962 ± 0.046.

Target CBL (UniProt P22681) has an NP40-soluble protein abundance (concentration: 0.1mM) of 1 ± 0.018 and an NP40-soluble protein abundance (concentration: 0.5mM) of 0.995 ± 0.015.

In the case of UniProt P35240 and related entries, the NP40-soluble protein abundance (concentration: 0.1mM) is reported as 0.989 ± 0.041 and the NP40-soluble protein abundance (concentration: 0.5mM) is reported as 0.996 ± 0.028.

UniProt P30044 and related entries was tested, and the NP40-soluble protein abundance (concentration: 0.1mM) was 0.983 ± 0.013 and the NP40-soluble protein abundance (concentration: 0.5mM) was 1.01 ± 0.025.

UBA1 (UniProt P22314) was tested, and the NP40-soluble protein abundance (concentration: 0.1mM) was 1 ± 0.013 and the NP40-soluble protein abundance (concentration: 0.5mM) was 0.9988 ± 0.0066.

In the case of RFX1 (UniProt P22670), the NP40-soluble protein abundance (concentration: 0.1mM) is reported as 1 ± 0.038 and the NP40-soluble protein abundance (concentration: 0.5mM) is reported as 1.01 ± 0.035.

Work on UniProt P18583 and related entries yielded an NP40-soluble protein abundance (concentration: 0.1mM) of 0.996 ± 0.065 and an NP40-soluble protein abundance (concentration: 0.5mM) of 1 ± 0.053.

UQCRC1 (UniProt P31930) gave an NP40-soluble protein abundance (concentration: 0.1mM) of 1 ± 0.021 and an NP40-soluble protein abundance (concentration: 0.5mM) of 1.013 ± 0.0041.

For PRDX2 (UniProt P32119), the NP40-soluble protein abundance (concentration: 0.1mM) was 0.9668 ± 0.0071 and the NP40-soluble protein abundance (concentration: 0.5mM) was 1 ± 0.035.

In the case of GTF2E1 (UniProt P29083), the NP40-soluble protein abundance (concentration: 0.1mM) is reported as 1.04 ± 0.049 and the NP40-soluble protein abundance (concentration: 0.5mM) is reported as 1 ± 0.021.

CSRP1 (UniProt P21291) was tested, and the NP40-soluble protein abundance (concentration: 0.1mM) was 0.9745 ± 0.0044 and the NP40-soluble protein abundance (concentration: 0.5mM) was 1.01 ± 0.023.

With PPIF (UniProt P30405) the NP40-soluble protein abundance (concentration: 0.1mM) was 0.973 ± 0.021 and the NP40-soluble protein abundance (concentration: 0.5mM) was 1 ± 0.035.

For SOAT1 (UniProt P35610), the NP40-soluble protein abundance (concentration: 0.1mM) was 1 ± 0.045 and the NP40-soluble protein abundance (concentration: 0.5mM) was 0.996 ± 0.037.

Target ZNF24 (UniProt P17028) has an NP40-soluble protein abundance (concentration: 0.1mM) of 1.01 ± 0.032 and an NP40-soluble protein abundance (concentration: 0.5mM) of 0.979 ± 0.018.

UniProt P31629 showed an NP40-soluble protein abundance (concentration: 0.1mM) of 0.996 ± 0.064 and an NP40-soluble protein abundance (concentration: 0.5mM) of 1 ± 0.06.

Target UniProt P19838 and related entries has an NP40-soluble protein abundance (concentration: 0.1mM) of 0.99 ± 0.021 and an NP40-soluble protein abundance (concentration: 0.5mM) of 0.987 ± 0.035.

TUBG1 (UniProt P23258) was tested, and the NP40-soluble protein abundance (concentration: 0.1mM) was 1.04 ± 0.017 and the NP40-soluble protein abundance (concentration: 0.5mM) was 1.05 ± 0.037.

For M6PR (UniProt P20645), the NP40-soluble protein abundance (concentration: 0.1mM) was 0.961 ± 0.066 and the NP40-soluble protein abundance (concentration: 0.5mM) was 1.03 ± 0.084.

ABCD3 (UniProt P28288) gave an NP40-soluble protein abundance (concentration: 0.1mM) of 1.04 ± 0.066 and an NP40-soluble protein abundance (concentration: 0.5mM) of 0.993 ± 0.13.

UniProt P33316 and related entries showed an NP40-soluble protein abundance (concentration: 0.1mM) of 0.986 ± 0.028 and an NP40-soluble protein abundance (concentration: 0.5mM) of 0.999 ± 0.021.

Work on UniProt P21964 and related entries yielded an NP40-soluble protein abundance (concentration: 0.1mM) of 0.985 ± 0.047 and an NP40-soluble protein abundance (concentration: 0.5mM) of 0.961 ± 0.084.

For CHM (UniProt P24386), the NP40-soluble protein abundance (concentration: 0.1mM) was 0.99 ± 0.025 and the NP40-soluble protein abundance (concentration: 0.5mM) was 0.959 ± 0.043.

For PRKAR1B (UniProt P31321), the NP40-soluble protein abundance (concentration: 0.1mM) was 1.05 ± 0.038 and the NP40-soluble protein abundance (concentration: 0.5mM) was 1.05 ± 0.026.

UniProt P29401 and related entries was tested, and the NP40-soluble protein abundance (concentration: 0.1mM) was 0.9774 ± 0.0048 and the NP40-soluble protein abundance (concentration: 0.5mM) was 1.01 ± 0.018.
